Data reported in the supplement of paper PMC3334620.
Whole data set: some 33,000 sequences, median “E-score (-0.5 to 0.5)” near -0.0059, cut for the highest 2% near 0.26. This is one part of the list.

Target: T1, Cin5 (UniProt P40917)
T1 sequence: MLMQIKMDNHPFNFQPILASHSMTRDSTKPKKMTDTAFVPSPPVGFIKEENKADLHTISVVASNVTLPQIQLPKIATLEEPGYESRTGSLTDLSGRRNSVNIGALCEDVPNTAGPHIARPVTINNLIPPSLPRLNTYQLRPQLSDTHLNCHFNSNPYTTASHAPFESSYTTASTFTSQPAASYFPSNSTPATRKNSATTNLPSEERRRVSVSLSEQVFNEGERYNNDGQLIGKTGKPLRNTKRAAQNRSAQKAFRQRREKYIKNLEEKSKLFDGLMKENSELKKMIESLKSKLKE
Assay: PBM E-score (8-mer binding enrichment) (E-score (-0.5 to 0.5)); higher = stronger / more preferred TF binding
Conditions: protein concentration: 100 nM; construct: GST-full length
Procedure: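 Universal 'all 10-mer' protein binding microarrays (Agilent AMADID 015681) probed with GST-tagged S. cerevisiae TFs (full-length or DBD) made by in vitro transcription/translation (PURExpress), about 100-200 nM. Bound TF was detected with fluorescent anti-GST. Each ungapped 8-mer (which stands for itself and its reverse complement) is scored by the PBM enrichment score (E-score), a modified Wilcoxon-Mann-Whitney statistic from -0.5 to +0.5, computed with the Universal PBM Analysis Suite. Scale: above 0.35 generally sequence-specific binding.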

Sequence | PBM E-score
AGAAGTAC | -0.0322
AAAGTAAT | 0.201
GCGGTACC | -0.0411
GTCGTGAA | -0.29
TGCCAGCA | -0.0807
ACCTCCGC | 0.0474
CAGACCAA | -0.0126
CAAGGTTA | 0.00409
AATAATTG | 0.0887
CAAGCACA | -0.0819
CTTGTTCA | 0.096
ATAACGAA | 0.294
AAAGTATA | 0.176
ACAGTGGG | -0.111
CCGTACGG | -0.323
AACGGCGG | -0.126
CAACAGGG | -0.0967
AGCGACCG | -0.00272
AGAATAAA | 0.153
ACAGAGTG | 0.0202
GACGGCTA | -0.0568
AGGGACAT | 0.106
AATGATAT | 0.226
GTGCCTAA | -0.136
TAAGAATA | -0.0126

Sequence | PBM E-score
ATGCGTCG | -0.0112
CATGCCCG | 0.104
GCAAAATA | 0.137
GCAATAGC | 0.183
CTTCTTCA | -0.0149
GGTCGACC | 0.217
CGCAATGA | 0.101
ATCAGTAA | 0.215
CATCATAA | 0.139
AACGGCCC | -0.192
CCGTGGTA | -0.13
CCAGAAAA | 0.136
CTAATGAC | -0.0506
CAGTAAAA | 0.112
ATCGTGAA | -0.0335
ACGGTATC | 0.0408
CCGATAGA | -0.056
CCTTTAGA | -0.24
CAACAACG | -0.0665
CCATGACA | 0.0493
CTGCTGGA | -0.128
ATAAACTC | 0.186
ACCTATTA | 0.267
ACAAGCCA | -0.0348
CAGTATCG | -0.0427

Sequence | PBM E-score
ATTCATAA | 0.147
CCGCACAG | -0.0131
CGGCAAGC | -0.103
CCCTGGCG | -0.112
AGGCAATG | 0.00872
CTCGTGCC | -0.12
GACCTTAA | -0.0985
CTATATCC | 0.181
AGGGTGAC | 0.0387
ATATCCTC | 0.192
CGACATTC | 0.0145
AGAGTACT | -0.102
CAACTTGG | 0.0918
AGGGTGAG | -0.157
GCCTCCCC | -0.122
CTCGTCGA | -0.037
AACTGAAT | -0.0709
GCAGACGC | -0.19
AAGGGGTC | -0.243
GAGGTACA | 0.0674
CTATTCGC | 0.128
GTAATCAA | 0.392
AACTATCT | 0.209
CCCCCTGC | -0.397
AGTCCTGC | -0.0878

Sequence | PBM E-score
CTGAGCAC | -0.151
AGTTTAGA | 0.14
AAACACGT | -0.122
ACAAGTCG | -0.16
ACAGATCC | 0.145
CCTATAAG | 0.00639
AGGTGGAA | 0.0494
AATCAATT | 0.196
ATACGTCC | -0.114
AGCTAGCG | -0.17
AGGATACC | -0.0578
AGGCACTA | -0.186
CAAGCAAC | 0.0396
ACCGAAGA | 0.0871
CTCGGCAA | -0.058
AATTCTAG | 0.00871
ATTGGCTA | 0.112
GTAACGTA | 0.129
CTTTATCC | -0.0117
GTGACCAA | 0.0942
ATGATACG | 0.215
CTCTGGCC | -0.234
AGAGTTGA | -0.0644
CATTTCTA | 0.0634
AGATTTCG | 0.134

Sequence | PBM E-score
ACCGGCCG | -0.101
TGTACCAA | 0.0244
GAACCCAC | 0.121
GACGGGAA | -0.0113
GAAGTCCC | -0.215
AGGTCCGG | -0.167
ACAGAACG | -0.0725
AAGTCCGC | -0.1
CTCCGCTA | -0.116
GCTACCGA | -0.0656
CGCCTGCC | -0.199
AGGATCCA | -0.0524
CCTCACCC | -0.0174
GCTCTCAC | -0.174
AAGCTCAT | 0.0455
ATATCGTC | -0.00452
GCAAATCA | 0.0394
AACGCTAC | -0.104
AACCTCTT | 0.183
ACGCTGCA | -0.205
CCGAGAAC | 0.0886
CGCTATCA | 0.122
CAACCGTA | -0.263
AAATAGCG | 0.0384
GGATCGAA | -0.0487

Sequence | PBM E-score
GACGCACC | -0.0178
CAAAACTA | 0.116
AAGCTGCC | -0.0392
AATCCTCA | -0.0921
ACCTTGTA | -0.0397
CACGAAAA | 0.115
GATCCCTA | -0.0517
GTCGGTGA | -0.233
AGGCCTAA | 0.0684
ACACCTTG | -0.0698
AACTCCCA | 0.0682
CCGTTTTC | 0.108
CCCCTGTC | -0.388
ATAATATG | 0.289
ATACTAGC | 0.154
GATGACTA | 0.115
CAATGTAC | -0.235
GGATCAAC | 0.0508
GATTTCCC | 0.028
CGGCTAAC | -0.0544
AGCGGACT | -0.2
ATTAGGAA | -0.00206
AACGTTAA | 0.0646
GAATGTAC | 0.0981
CCCCATTA | -0.176

Four entries picked at random from those above:
Sequence | PBM E-score
AGAGTTGA | -0.0644
GGATCAAC | 0.0508
AGGGACAT | 0.106
CAGTATCG | -0.0427

(further entries)

Sequence | PBM E-score
ATTTACAC | 0.0129
CCGGCCAG | -0.147
ATCCGGAC | -0.149
AGATCTTC | -0.0381
GATAGAAC | 0.0486
ATTGCTGA | 0.115
CCCGGGGA | -0.108
CTGTAATA | 0.105
ATAAAAAT | 0.0935
ATTGGTTG | 0.205
CTCGAGCC | -0.0495
AAGAACGC | -0.0488
ACAGGTCC | -0.227
AGCTTGGA | -0.182
AATATCAA | 0.203
AATTGCGA | 0.0349
AACGTCCT | 0.0671
CGGTAGAC | -0.0132
AGACAAGA | 0.0614
TAACACAA | 0.155
GTACTCTA | -0.0538
CCGCCTAA | -0.0943
GCTGCCGA | -0.183
AGTAGGTA | 0.0225
ACAACGCT | -0.00306

Sequence | PBM E-score
CTTTCGCC | -0.0892
GAACACTC | 0.0733
GAAGATTC | 0.0827
AAGAGTTC | -0.117
GATCGAAA | 0.223
GAAAGTTC | -0.118
ATAAGGTA | 0.186
TCCTTCGA | -0.183
GCTCGGCA | -0.0441
CTGAGTAC | -0.0169
CCGGCATA | -0.02
CGTCTAAA | -0.073
CAATCTAC | -0.0222
GGTGCGAC | -0.0558
CCAGATAC | -0.0913
GCTCAATA | 0.108
CAGAATAA | 0.162
AGTTCAAA | 0.104
AACCCTAT | 0.107
AGGCCTAG | -0.187
GCATTATA | 0.152
CTGCAGAC | -0.12
ATAAATAG | 0.102
ACTGCCCC | -0.125
AAGTTCGC | 0.0418

Taken from above.
PBM E-score with AACCCTAT is entered as 0.107
PBM E-score with GGTGCGAC is entered as -0.0558
PBM E-score with GAACACTC is entered as 0.0733
PBM E-score with CTGAGTAC is entered as -0.0169
PBM E-score with TCCTTCGA is entered as -0.183

Additional records:

Sequence | PBM E-score
TCAGTAGA | 0.0235
AAGTACAT | 0.131
GGAATGAA | 0.244
TCCTGTCA | -0.101
CTAGGAAG | -0.184
CGTGGTTC | -0.0577
CACCCGTG | -0.101
AATTCCCC | 0.197
CTTTAGAC | -0.0755
GTCTATTA | 0.0891
TTATAAAA | 0.289
GAACTGTC | -0.044
ACTCGCAG | 0.00109
AGGCGATG | -0.00053
CGAACTCG | 0.0986
CCTCAGCA | -0.0511
GAGAGGAC | -0.00053
CCGTCGTA | 0.0158
CCTTAGAG | -0.296
